Source: PubChem BioAssay AID1508600 (Functional Genomics Laboratory (NCATS/FGL), 2020)
In all, about 53,000 sequences went through this assay and about 3,700 (7%) were called active.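 The calls were made as follows: active = gene knockdowns whose robust z-score for IL-1 alpha signal is at least 2 or at most -2, so actives lie on both sides; inactive = the rest.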 Some of the results follow.

assay: Components of the Cytosolic LPS Sensing Pathway: Gene Identification via Genome-wide siRNA Screen; details: RAW264.7 macrophages, IL-1a HTRF, actives lie on both sides, screened at 100 nM (by protocol), cells primed 5 h with Pam3CSK4 first;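 also: robust z of the log signal after scaling to non-targeting control siRNA wells of the plate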
Outline: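 Knockdown: 100 nM siRNA, 48h, RAW264.7. Stimulation: Pam3CSK4 5 h, then LipidA via TransIT-TKO 24 h. Output: supernatant IL-1a HTRF, negative-control-normalized, log robust z-score; viability by CellTiter-Glo.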

Sequence	z-score
CCAGAACUUCCCAUUAAAATT against Alg8	inactive: -0.771
GCAUCUAACUACUUGGGCCTT against Hhip	inactive: 1.18
GUUUCAGUGCAGCCAUUACTT against Olfr518	inactive: -0.747
CCCUCAGAUCUUUCAGUCUTT against Btbd16	inactive: -1.01
GCAAGAGGAACCUUUCUUGTT against Mmp17	inactive: 0.662
CCUCAGCAAAUAUAUGGCATT against Ccdc7b	inactive: 0.0117
GGUGUGUGGUUUUUAAUAATT against Abhd3	inactive: -0.692
GGACAAGAAGAACAUCAUCTT against Cfl1	inactive: 1.16
GGAUUUUUCAGGAGAUAUGTT against Ubtf	inactive: -1.07
GGACAGAUCCCAUUCAAAUTT against Mpped1	inactive: 0.316
GGACAUACGGUUUCAUUGUTT against Ptprv	inactive: -0.527
GCAGCCAAAUUCAUCCUCATT against Tspan33	inactive: -0.552
CCCACCCUAAAUUUAGGAUTT against Opa3	inactive: 0.363
GGAUGCCAAAGCAGCUCAUTT against Epc1	inactive: -1.56
GGUGAUUUUCGAUAUACACTT against Dclre1b	inactive: 0.257
GGAAAGAAAGUUCUUUAGATT against Rbm41	inactive: 0.548
GGGAGAUCUUGACAAAUUCTT against Aplp1	active: 2.32
GGUGUCAUGAUGGAGCUGATT against Crygc	inactive: 0.862
GGAAUGGUCCCUCCAAUGATT against Prpf40b	active: 2.38
GGAAGCAGUCAGAGAAGAATT against Smim11	inactive: -0.426
GGAAAAGACUAAAAUGCUUTT against Rbm5	inactive: -0.419
GGUCCCUGCAAAGUAGAAUTT against Olfr1153	inactive: 0.534
GGUUGACAACCACCUUUUUTT against Pip4k2a	inactive: -0.563

Sequence	z-score
CCUUUUUACUUCGAGAUUCTT against Socs4	inactive: -0.2
CGAUCCAAUGGAUUUCAAGTT against Col3a1	inactive: 0.0811
GGAGCAAAUAGGGUUCAUUTT against Rhox10	inactive: -1.08
GUGACAUCAACUUAAUGGATT against Klra20	inactive: 0.0605
CGUUUUUCUUAUGAUCAGGTT against Ankrd13b	inactive: -0.182
GGUUUUUACUUUGACCCUGTT against Dcaf4	inactive: 0.694
CCCGCAUGCUCUUUGUAACTT against Kansl3	inactive: -0.146
GGCUCUCAUUGAUGCAUGUTT against Cpeb4	inactive: -0.264
GCAUGUUUUGGUGUAUAGUTT against Arl4a	inactive: -1.81
GGCUUUUGAGAGCUACCGGTT against Ell	inactive: -0.473
GCUGAUUCUUCACUUUGUGTT against Coq9	inactive: -1.03
GGGUGCUGAUGGACAAUAATT against Speer3	inactive: -1.05
GGAAUCACAUCCAGUUGGUTT against Diablo	inactive: -0.546
GGCGGUCAAUGACCUCAUATT against Ces1f	inactive: -1.17
GGAAGUUUCUGAAGGAACATT against Olfr630	inactive: -0.237
GGAUUAGGAAUUCUUGUGUTT against Oxld1	inactive: 0.22
CCAGCAAUAACAAUCAGAGTT against Lzts3	inactive: 0.528
GGCUGCAUAAAGGUGUUGATT against Cyria	inactive: 1.93
GGUGAUCACUAAACUCCAATT against Msh4	inactive: 0.116
GGCCUUUCCUCUACACCCUTT against Plb1	inactive: 1.02
ACAACAUGAUUGUCGUGGATT against Ugt1a6a	inactive: 0.831
CCUGUAGGAGUGACUUCCUTT against Crbn	inactive: 0.223
GGCUUGUUUCCACCAAUAGTT against Creb3l2	inactive: 0.88

Some values from the entries so far:
GGAAGUUUCUGAAGGAACATT against Olfr630 – z-score: inactive: -0.237
GGCGGUCAAUGACCUCAUATT against Ces1f – z-score: inactive: -1.17
CCCGCAUGCUCUUUGUAACTT against Kansl3 – z-score: inactive: -0.146
CCAGCAAUAACAAUCAGAGTT against Lzts3 – z-score: inactive: 0.528
ACAACAUGAUUGUCGUGGATT against Ugt1a6a – z-score: inactive: 0.831
GGCUUGUUUCCACCAAUAGTT against Creb3l2 – z-score: inactive: 0.88

Next results.

Sequence	z-score
GCCAAGUCUGCUUCACGAGTT against Nyap1	inactive: 1.82
GAAAGUGGCCGUAAAGGUGTT against Nkx3-2	inactive: -0.178
GACAAUAUCUCUGAAUGGATT against Olfr459	inactive: -0.946
GGACUAAACAGAUUCACUATT against Rnase9	active: -2.42
GCUCAGACUGGUCCCUUAATT against Ywhab	inactive: -0.337
GGAACCUGUGGAGAAGGCUTT against Zfp101	inactive: 1.16
CCACCACAGAAUGCAUUACTT against Vmn1r64	inactive: 0.102
GGAGGACAAUGGCUAAUAGTT against Fitm2	inactive: 0.7
GGAUGUUGAUUUUCAUGGUTT against Grpel2	inactive: 1.13
GCUUCUAACUACACAGACUTT against Cd63	inactive: -0.216
CCAGUUUGUACCAUUAUAGTT against Sspo	inactive: 0.309
GGACACAAAGAAGAAGAGGTT against Tarsl2	inactive: 0.707
CCAGCAAAUGCAGCACAUCTT against Vmn1r180	inactive: 0.273
GGAUAACUGUAACAGCCCGTT against Ly6g6c	active: -2.12
GGAAGAGGUGGAGUUUGUGTT against Pla2g4e	inactive: -1.19
GCCUGUGGGAACUGACUAATT against 4931406H21Rik	inactive: -0.727
GGUCCUGAAGAUACCAUCUTT against Olfr1377	inactive: -0.404
GGAGGUGAAACCAUAAAAATT against Fubp1	inactive: 0.388
CCAGUUUCAGAUCAGAUUATT against Zfp747	inactive: 0.729
CGUAAUCAGUGCAGUAAACTT against Zfp781	inactive: -0.118
GCUAUAGACAAGGAGAGUATT against Galnt6	inactive: 0.62
GGUGCUGUUCCAUUUCUAUTT against Dnaaf6	inactive: -0.842
